From PMC7819943, “Rice protein-binding microarrays: a tool to detect cis-acting elements near promoter regions in rice”
Some of the results follow.

molecular target: T1, OsSMF1 (Oryza sativa, UniProt Q6ZLB0 1-436); test: protein-binding microarray (RPBM); PBS, 2% BSA, 51.3 ng/ul salmon testes DNA, 50 uM zinc acetate, 200 nM TF, 25 C, 1 h; high values mean tight binding; conditions: protein: recombinant; tags: N-terminal polyhistidine and DsRed monomer fusion (pET32a); chain copies: 2; label: CyDye5-dUTP incorporated in the synthesized complementary strand; 3' TTTTT single-stranded linker to array surface; dsDNA, one strand shown
T1 sequence: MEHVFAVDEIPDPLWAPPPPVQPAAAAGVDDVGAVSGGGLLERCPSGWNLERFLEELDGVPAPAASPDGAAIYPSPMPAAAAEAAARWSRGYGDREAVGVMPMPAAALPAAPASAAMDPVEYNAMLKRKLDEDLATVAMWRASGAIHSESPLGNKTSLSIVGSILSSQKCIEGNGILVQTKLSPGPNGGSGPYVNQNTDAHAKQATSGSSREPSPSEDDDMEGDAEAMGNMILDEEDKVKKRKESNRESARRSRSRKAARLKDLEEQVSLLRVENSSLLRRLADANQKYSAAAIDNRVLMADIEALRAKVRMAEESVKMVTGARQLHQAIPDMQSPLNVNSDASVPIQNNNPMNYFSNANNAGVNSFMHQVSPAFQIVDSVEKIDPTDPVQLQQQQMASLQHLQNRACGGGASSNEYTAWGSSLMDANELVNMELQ
Outline: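 Binding signal is reported as fluorescence intensity per feature (arbitrary units) from an Axon 4000B scanner. Incubation used 200 nM of each Ni–NTA-purified, N-terminally polyhistidine- and DsRed-fused transcription factor from E. coli BL21-CodonPlus on a double-stranded custom Agilent array for 1 h at 25 °C, with 50 µM zinc acetate in the buffer, followed by washing.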

Row | Sequence | binding signal
1 | CATCATGACGGCAATCATCGGCGACACGTGCCCGCAGCGGCGGAGTCACCTAGTGCAG | 6200 fluorescence intensity (a.u.)
2 | CTATGCCTTGTCAACATTCAACCCCTCCAATAGACTTTGTCGGAGTCACCTAGTGCAG | 3210 fluorescence intensity (a.u.)
3 | TTTAGACACGTATATGATGCACATATATGGATCCATGCATCGGAGTCACCTAGTGCAG | 4290 fluorescence intensity (a.u.)
4 | TTCCCGGACCCAATAAACCATCCGATGGCCTCCTTTGACGCGGAGTCACCTAGTGCAG | 3380 fluorescence intensity (a.u.)
5 | CACTGACACGGCCCACGAAGCCGCAGCGTTCATGCGTAGACGGAGTCACCTAGTGCAG | 3140 fluorescence intensity (a.u.)
6 | ACCACATGTAGTGGTAGGGTCGATCCAATCTGCTCTACCTCGGAGTCACCTAGTGCAG | 26400 fluorescence intensity (a.u.)
7 | TTATAATGAATAAAAGATTCTTCTTCTTTGGCAAATTGCACGGAGTCACCTAGTGCAG | 14000 fluorescence intensity (a.u.)
8 | TTGTATAAAATAATCAGTGTGTCATGCTTAAAGTCTAAAACGGAGTCACCTAGTGCAG | 4260 fluorescence intensity (a.u.)
9 | TAAGATGATCGGACTCCTAATTACAGCTCATGATTTTCTTCGGAGTCACCTAGTGCAG | 3170 fluorescence intensity (a.u.)
10 | ATAACAATTAGGATGAAATGGTCAAGCGCATGGTTGGGATCGGAGTCACCTAGTGCAG | 3460 fluorescence intensity (a.u.)
11 | CGTACGGGTACTGATTCGTCACGCTGCGCCGTGTTGCGTCCGGAGTCACCTAGTGCAG | 4580 fluorescence intensity (a.u.)
12 | TGACATCGTCTTCTCCAACTTCGGCCGCCGGCGTCAATCTCGGAGTCACCTAGTGCAG | 3310 fluorescence intensity (a.u.)
13 | GGTCCCTGCCTCGTGAGCAGCCCATCTGCACTGCCTTCTGCGGAGTCACCTAGTGCAG | 3630 fluorescence intensity (a.u.)
14 | AGTCCACATGGAGTACCCCATAAGCCCATCGCTAATTATACGGAGTCACCTAGTGCAG | 3440 fluorescence intensity (a.u.)
15 | ACTATCTACGTCATCTCCTATTTCTTCCCTTTTCTTCTCTCGGAGTCACCTAGTGCAG | 15400 fluorescence intensity (a.u.)
16 | CTGAACACGTATGTGTCTAGATTCGTTGATAGGATTGGATCGGAGTCACCTAGTGCAG | 3930 fluorescence intensity (a.u.)
17 | GGTGGAAATGGTGTTTATGTGTGTGAGTATGTTATTCCTTCGGAGTCACCTAGTGCAG | 3200 fluorescence intensity (a.u.)
18 | CTGAATTTGACTCTTGGATGGTGACTATGATGTCCAAGTACGGAGTCACCTAGTGCAG | 45100 fluorescence intensity (a.u.)
19 | ACATGAGGCAGCTTTCCATATCACCGTATCCATAGCCCATCGGAGTCACCTAGTGCAG | 3580 fluorescence intensity (a.u.)
20 | AAATAAAATGCTAACTGGATTGCCACGCGTATAAAACAGCCGGAGTCACCTAGTGCAG | 7090 fluorescence intensity (a.u.)
21 | TAACATTGTTTCTGACTTGCTGAGTTGTACTAAAACTTTGCGGAGTCACCTAGTGCAG | 4020 fluorescence intensity (a.u.)
22 | CAACACTCTTCCGAAGCATTAAGAATCACCTACACATGCACGGAGTCACCTAGTGCAG | 20700 fluorescence intensity (a.u.)
23 | GCACAACCGCACACGAGACGACGTCACCCACAACCGCACGCGGAGTCACCTAGTGCAG | 6040 fluorescence intensity (a.u.)
24 | GATGGTACTATCCAATAGTTTCCCTGTTACGAACTCCTCCCGGAGTCACCTAGTGCAG | 7030 fluorescence intensity (a.u.)
25 | GTTTTGTCTCACGTGACGGCTGAGTCAGCGTGAGACCCACCGGAGTCACCTAGTGCAG | 10600 fluorescence intensity (a.u.)
26 | CTTACAACTAGGGATGGATGGTGTCATGAAGGTCCTTAGACGGAGTCACCTAGTGCAG | 3560 fluorescence intensity (a.u.)
27 | CCTGCTGACAATGCATTGACACATTGATGGACTGTAGGACCGGAGTCACCTAGTGCAG | 10200 fluorescence intensity (a.u.)

Retrieved one by one from the list above (2):
Row | Sequence | binding signal
7 | TTATAATGAATAAAAGATTCTTCTTCTTTGGCAAATTGCACGGAGTCACCTAGTGCAG | 14000 fluorescence intensity (a.u.)
9 | TAAGATGATCGGACTCCTAATTACAGCTCATGATTTTCTTCGGAGTCACCTAGTGCAG | 3170 fluorescence intensity (a.u.)

(further entries)

Row | Sequence | binding signal
28 | CCAGCATCATCACCGCATCACGTCCTCGTCGGCCTCCACGCGGAGTCACCTAGTGCAG | 5470 fluorescence intensity (a.u.)
29 | GGCGTCCGTGGTGACTCGTCAACTCAACATATGCCGTTCCCGGAGTCACCTAGTGCAG | 3640 fluorescence intensity (a.u.)
30 | AGCCAAAATAACTCAGCACCGAGTATAGCCACAACGTCACCGGAGTCACCTAGTGCAG | 3190 fluorescence intensity (a.u.)
31 | AGTACTTCACGTCAGAATAATGTGTGACTATGATGTGTGGCGGAGTCACCTAGTGCAG | 6110 fluorescence intensity (a.u.)
32 | CTCCTCACTTCTGTCATCATCTCTCTCAGACTTCTCTTTCCGGAGTCACCTAGTGCAG | 3820 fluorescence intensity (a.u.)
33 | TTGTTTCGTATGTCTCTAGTGTGACTATTGCATGTACTTGCGGAGTCACCTAGTGCAG | 3510 fluorescence intensity (a.u.)
34 | AGCGTAGGCGGAATAGCATCCTAGGGCGCACGCGTCACGCCGGAGTCACCTAGTGCAG | 5260 fluorescence intensity (a.u.)
35 | CGTCGTCCCTGCGCGTCTGTGACGTCTGCTGCTGACTCGTCGGAGTCACCTAGTGCAG | 5340 fluorescence intensity (a.u.)
36 | TGAGACAATGATAACTTGGAACACTAGCTGTACCGTTAGACGGAGTCACCTAGTGCAG | 26800 fluorescence intensity (a.u.)
37 | GGAGGACGACGTGTCCGAGCTGCAGTGGCGCCGCATGGTGCGGAGTCACCTAGTGCAG | 8120 fluorescence intensity (a.u.)
38 | TCGCTTCCCTTCCCTCCTCACCTCTCCCGCGCGCGCGAGTCGGAGTCACCTAGTGCAG | 32500 fluorescence intensity (a.u.)
39 | AGCCTCTCCACTACCTCTCCCTCCACCTGTCGCCTAAACCCGGAGTCACCTAGTGCAG | 3200 fluorescence intensity (a.u.)
40 | CCCAACCGTCCTATATATGCCCAGGTCTCAAATGTCAGCTCGGAGTCACCTAGTGCAG | 4040 fluorescence intensity (a.u.)
41 | CCTGACCCACATGTCATTGACTCATATGGGTCCTCATATCCGGAGTCACCTAGTGCAG | 4870 fluorescence intensity (a.u.)
42 | GCACCTACACTGCTACACATCACTTCCTAATTGATTAAGCCGGAGTCACCTAGTGCAG | 3180 fluorescence intensity (a.u.)
43 | GGGCTGGCGGCCGACGACGGCGCGGGCCGAAGGGAGGTGGCGGAGTCACCTAGTGCAG | 3330 fluorescence intensity (a.u.)
44 | TGGGTAGTGATTACCCATACCCATGCCCATTTACCCATCACGGAGTCACCTAGTGCAG | 3150 fluorescence intensity (a.u.)
45 | ATAGTTTGACATCATCATGCCCTGCTGTCTGCTAGAACATCGGAGTCACCTAGTGCAG | 5040 fluorescence intensity (a.u.)
46 | GCGCCCACCGACGTCATCACGCTCCGCCCCAAGCACGGCCCGGAGTCACCTAGTGCAG | 9150 fluorescence intensity (a.u.)
47 | GTTTTGCACCTTATTTGACATGTATGCACTGTTGTATATTCGGAGTCACCTAGTGCAG | 3160 fluorescence intensity (a.u.)
48 | TATCATGTTGGCCCAACACATCATACACGTAAGATCTGGCCGGAGTCACCTAGTGCAG | 8420 fluorescence intensity (a.u.)
49 | ATTACATGAACCCCACCTGTCAGTGACACAAACATCCCACCGGAGTCACCTAGTGCAG | 4040 fluorescence intensity (a.u.)
50 | GTTCTCATCCCCTCTCACCGAGCCGAGGAGAGCCGAGCCACGGAGTCACCTAGTGCAG | 3210 fluorescence intensity (a.u.)
51 | ATCCAATGGCTCAGATCGGTCCACGTTTCCCTCAGACTCGCGGAGTCACCTAGTGCAG | 3260 fluorescence intensity (a.u.)
52 | CGCTGGTGGTAGCTTTGCTGACTATAATAATGTCCATATACGGAGTCACCTAGTGCAG | 3680 fluorescence intensity (a.u.)
53 | ACATCATCCTCCAGTCACGTCGTCCTCCTCCACCTCGGGTCGGAGTCACCTAGTGCAG | 25200 fluorescence intensity (a.u.)
54 | ACTCCTACTTTTCAGTCAAGGAGGAAGAAGTGTCGAATTTCGGAGTCACCTAGTGCAG | 21900 fluorescence intensity (a.u.)
